Experimental data: PubChem BioAssay AID1508597 (Cure First, 2020)
In all, the deposit lists about 2,100 reagents; this is an unselected part. 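Calls flag viability under 80% in either arm, not effects specific to rucaparib; the reference for percent is not stated.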 Not stated in the record: the 100% reference.

Test: 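Genes whose silencing sensitises or protects ovarian cancer cells against rucaparib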 (primary screen)
System: human ovarian carcinoma lines grown from tumours: OCI-P5x (papillary serous) and OCI-C5x (clear cell)
Reagents: siRNA pool against human genes, 1.25 pmol siRNA per well
Duration: 72 h or 96 h, depending on the cell culture
Challenge: rucaparib 20 µM (about IC30) or vehicle, present until read-out
Read-out: 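ATP luminescence measured at 72 or 96 h according to the culture, then normalised and expressed as percent viability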
Direction: viability, normalised: higher = more viable cells remaining
Hit rule: 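a well counts as a hit if its normalised viability is under 80 percent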
Calls: active = viability under 80%; inactive = viability 80% or more

Gene	rucaparib or vehicle	cell line	technical replicate	viability, normalised (%)	activity call
POLR2K	Rucaparib	OCI-C5x (clear cell)	1	53.9	active
POLR2K	Rucaparib	OCI-C5x (clear cell)	2	57.7	active
POLR2K	Rucaparib	OCI-C5x (clear cell)	3	55	active
POLR2K	Rucaparib	OCI-P5x (serous)	1	114	inactive
POLR2K	Rucaparib	OCI-P5x (serous)	2	103	inactive
POLR2K	Rucaparib	OCI-P5x (serous)	3	89.2	inactive
POLR2K	Vehicle	OCI-C5x (clear cell)	1	41.5	active
POLR2K	Vehicle	OCI-C5x (clear cell)	2	43.7	active
POLR2K	Vehicle	OCI-C5x (clear cell)	3	49.2	active
POLR2K	Vehicle	OCI-P5x (serous)	1	81	inactive
POLR2K	Vehicle	OCI-P5x (serous)	2	87.9	inactive
POLR2K	Vehicle	OCI-P5x (serous)	3	101	inactive
PARP10	Rucaparib	OCI-C5x (clear cell)	1	40.7	active
PARP10	Rucaparib	OCI-C5x (clear cell)	2	39.8	active
PARP10	Rucaparib	OCI-C5x (clear cell)	3	37.2	active
PARP10	Rucaparib	OCI-P5x (serous)	1	39.4	active
PARP10	Rucaparib	OCI-P5x (serous)	2	49.7	active
PARP10	Rucaparib	OCI-P5x (serous)	3	42	active
PARP10	Vehicle	OCI-C5x (clear cell)	1	47.8	active
PARP10	Vehicle	OCI-C5x (clear cell)	2	33	active
PARP10	Vehicle	OCI-C5x (clear cell)	3	37.3	active
PARP10	Vehicle	OCI-P5x (serous)	1	46.1	active
PARP10	Vehicle	OCI-P5x (serous)	2	45.2	active
PARP10	Vehicle	OCI-P5x (serous)	3	56.1	active
TGFBR2	Rucaparib	OCI-C5x (clear cell)	1	44.8	active
TGFBR2	Rucaparib	OCI-C5x (clear cell)	2	56.4	active
TGFBR2	Rucaparib	OCI-C5x (clear cell)	3	49.1	active
TGFBR2	Rucaparib	OCI-P5x (serous)	1	125	inactive
TGFBR2	Rucaparib	OCI-P5x (serous)	2	113	inactive
TGFBR2	Rucaparib	OCI-P5x (serous)	3	106	inactive
TGFBR2	Vehicle	OCI-C5x (clear cell)	1	51.2	active
TGFBR2	Vehicle	OCI-C5x (clear cell)	2	45.9	active
TGFBR2	Vehicle	OCI-C5x (clear cell)	3	51.6	active
TGFBR2	Vehicle	OCI-P5x (serous)	1	108	inactive
TGFBR2	Vehicle	OCI-P5x (serous)	2	88.8	inactive
TGFBR2	Vehicle	OCI-P5x (serous)	3	114	inactive
MAP3K14	Rucaparib	OCI-C5x (clear cell)	1	62.1	active
MAP3K14	Rucaparib	OCI-C5x (clear cell)	2	67	active
MAP3K14	Rucaparib	OCI-C5x (clear cell)	3	72.1	active
MAP3K14	Rucaparib	OCI-P5x (serous)	1	63.1	active
MAP3K14	Rucaparib	OCI-P5x (serous)	2	64.3	active
MAP3K14	Rucaparib	OCI-P5x (serous)	3	49.8	active
MAP3K14	Vehicle	OCI-C5x (clear cell)	1	51.2	active
MAP3K14	Vehicle	OCI-C5x (clear cell)	2	50.8	active
MAP3K14	Vehicle	OCI-C5x (clear cell)	3	45.7	active
MAP3K14	Vehicle	OCI-P5x (serous)	1	66	active
MAP3K14	Vehicle	OCI-P5x (serous)	2	49.4	active
MAP3K14	Vehicle	OCI-P5x (serous)	3	47.7	active

Single entries from the entries so far.
For “activity call”, PARP10, rucaparib or vehicle Vehicle, cell line OCI-P5x (serous), technical replicate 2 reads active
TGFBR2, rucaparib or vehicle Rucaparib, cell line OCI-P5x (serous), technical replicate 3, viability, normalised (%) = 106
Under “viability, normalised (%)”, POLR2K, rucaparib or vehicle Rucaparib, cell line OCI-P5x (serous), technical replicate 1 shows 114
For “viability, normalised (%)”, TGFBR2, rucaparib or vehicle Rucaparib, cell line OCI-P5x (serous), technical replicate 2 shows 113
Result of MAP3K14, rucaparib or vehicle Rucaparib, cell line OCI-C5x (clear cell), technical replicate 3 under “viability, normalised (%)”: 72.1
